This passage reports AC50 results from PubChem BioAssay AID1487 (National Center for Advancing Translational Sciences (NCATS), 2009).

Some of the results follow. These are further read-outs of the screen, such as a control signal, another cell line or another target. No call is given for them. Most of these compounds were active or inconclusive in the main read-out, so they are no random draw. The note in brackets gives the kind of curve behind each potency; many fits are weak.

The AC50 is the concentration at which the activity in the assay is half-maximal.

The assay in a line: qHTS Assay for Modulators of Lamin A Splicing. The conditions noted are these: HeLa LMNA splicing GFP/RFP minigene ratio, 48 h. The essentials: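 Read-out is the ratio of GFP to DsRed2 object intensity, acquired by 488 nm laser-scanning cytometry on HeLa lamin A-EGFP minigene reporter cells. Compound incubation 48 hrs at 37 °C in Opti-MEM with 2% FBS; DMSO 0.5% final.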
For orientation: qHTS replaces the single test concentration by a dilution series.

Setting [1] is: measured here: GFP splicing reporter channel.
Where [2] appears, read: measured here: RFP viability control channel.

In the case of `CC(C)N(Cc1nc(-c2ccccc2)no1)C(=O)c1ccc([N+](=O)[O-])cc1`, the AC50 under setting [1] was 17.8 µM [falling, partial curve, poor fit].

For `CCOC(=O)C1CCCN(CC(=O)Nc2cccc(C(C)=O)c2)C1` (stereo unspecified), the AC50 is 0.00708 µM [falling, full curve, poor fit] under setting [1] and 0.00501 µM [falling, full curve, poor fit] under setting [2].

Take `Cn1nc([N+](=O)[O-])nc1Oc1ccc(C(C)(C)C)cc1`: under setting [2], the AC50 was 35.5 µM [rising, single point].

As for `COc1cc(CNc2nnnn2C)ccc1OCc1ccc(F)cc1Cl`, the AC50 under setting [2] is 12.6 µM [falling, single point].

With `COc1ccccc1/C=C(/C(=O)OCC(=O)Nc1ccc(N(C)C)cc1)c1ccccc1`, the AC50 reads like this: under setting [1], 10 µM [rising, partial curve, poor fit]; under setting [2], 10 µM [rising, partial curve, poor fit].

`O=C(O)Cn1nc(C(F)(F)F)c2c1CCCC2`: the AC50 under setting [2] was 0.0251 µM [falling, full curve, poor fit].

Consider `CCCn1c(N)c(C(=O)CSc2nc3ccccc3s2)c(=O)[nH]c1=O`, for which, under setting [2], the AC50 was 7.08 µM [rising, full curve, poor fit].

Turning to `CN(CC(=O)Nc1ccc(S(=O)(=O)N2CCCC2)cc1)Cc1ccc(Cl)c(Cl)c1`, the AC50 under setting [2] was 15.8 µM [rising, single point].

Take `c1ccc(CCCNc2ncnc3nc[nH]c23)cc1`: the half-maximal activity concentration (AC50) under setting [2] is 31.6 µM [rising, single point].

As to `O=C(CSc1ncc(-c2ccc(F)cc2)n1Cc1ccco1)Nc1ccc2c(c1)OCO2`, the AC50 under setting [1] is 11.2 µM [rising, partial curve] and the AC50 under setting [2] was 12.6 µM [rising, partial curve].

Take `N#Cc1c(NC(=O)CSc2ncn[nH]2)sc2c1CCCCC2`: under setting [2], the AC50 was 22.4 µM [rising, single point].

Consider `CCCN(CC1CC1)C(=O)CSc1ncnc2sc(C)c(C)c12`, for which the AC50 under setting [2] is 8.91 µM [rising, partial curve].

Regarding `Cc1cc(=O)n(Cc2cccc(Cl)c2)c2c1c(C)nn2-c1ccccc1`, the AC50 under setting [1] is 0.00316 µM [falling, full curve, poor fit] and the AC50 under setting [2] was 0.00355 µM [falling, full curve, poor fit].

Take `CCN(CC)C(=O)c1sc2c(c1C)c(=O)n(-c1ccccc1)c(=O)n2CC(=O)Nc1ccc(C)cc1C`: the AC50 under setting [1] is 0.00447 µM [rising, full curve, poor fit].

For the molecule `CCCCOC(=O)c1c(C)oc2ccc(NS(=O)(=O)c3ccc4c5c(cccc35)C(=O)N4)cc12`, the AC50 was 11.2 µM [rising, single point] under setting [1] and 12.6 µM [rising, single point] under setting [2].

In the case of `CCc1nnc(NC(=O)c2cccc(S(=O)(=O)N3CCc4ccccc43)c2)s1`, the AC50 under setting [1] is 10 µM [rising, partial curve, poor fit].

Take `CCOc1ccc(CC(=O)NCCc2sc3nc(-c4ccc(OC)cc4)nn3c2C)cc1`: the AC50 under setting [1] was 0.0631 µM [rising, full curve].

Regarding `Cc1ccc(N(CC(=O)NC(C)(C)C)C(=O)CS(=O)CC(=O)Nc2ccc(F)cc2)cc1` (stereo unspecified), the AC50 reads like this: under setting [1], 1.26 µM [falling, partial curve]; under setting [2], 1.58 µM [falling, partial curve].

As for `CCC1(CC)NC(=O)N(Cc2nc3ccccc3s2)C1=O`, the concentration at half-maximal activity (AC50) by setting is: under setting [1], 0.0224 µM [rising, full curve, poor fit]; under setting [2], 3.98 µM [rising, single point].

For `CC(C)=N/N=c1\scc(C)n1Cc1ccco1`, the AC50 under setting [1] is 3.98 µM [falling, full curve, poor fit].

As for `CCCn1nc([N+](=O)[O-])c(C(C#N)c2nc3ccccc3o2)c(Cl)c1=O` (stereo unspecified), under setting [2], the AC50 was 12.6 µM [rising, partial curve].

With `COc1cccc(C(=O)NC2CCN(CC(=O)Nc3c(C)cc(C)cc3C)CC2)c1`, the AC50 under setting [2] is 10 µM [falling, partial curve, poor fit].

For `COc1cc2c(O)c3c(c(-c4ccc5c(c4)OCO5)c2cc1OC)C(=O)OC3`, the AC50 runs as follows: under setting [1], 6.31 µM [falling, partial curve]; under setting [2], 8.91 µM [falling, partial curve].

As for `CCCC(=O)NC(c1ccc2c(c1)OCO2)c1cc(Cl)c2cccnc2c1O` (stereo unspecified), under setting [2], the AC50 is 2.82 µM [rising, full curve].

On to `CCCCN(C)S(=O)(=O)c1cc(-c2nnc3c4ccccc4c(C)nn23)ccc1C`, for which the AC50 under setting [1] is 0.01 µM [rising, full curve, poor fit].

In the case of `COc1ccc(CCN(C)C(=O)/C=C/c2c(Cl)nc3ccccn23)cc1OC`, under setting [2], the AC50 was 0.002 µM [falling, full curve].

For the molecule `COc1cc(NC(=O)CSc2nccc(C)n2)c(C)cc1[N+](=O)[O-]`, the AC50 under setting [2] is 5.01 µM [rising, full curve, poor fit].

For the molecule `CC1CC(C)CN(c2nc(NCc3ccco3)nc(N)c2[N+](=O)[O-])C1` (stereo unspecified), the AC50 under setting [1] was 0.631 µM [rising, single point] and the AC50 under setting [2] is 25.1 µM [rising, partial curve].

For the molecule `C=CCOc1ccc2c(c1)c(S(=O)(=O)c1ccc(C)cc1)cn2COC`, the half-maximal activity concentration (AC50) under setting [1] is 17.8 µM [rising, single point] and the AC50 under setting [2] is 35.5 µM [rising, single point].

With `O=c1c2ccccc2nnn1CSc1nnc(-c2cccs2)n1Cc1ccccc1`, the AC50 under setting [2] was 22.4 µM [rising, single point].

Take `Cc1oc(-c2cccc(Br)c2)nc1CN1CCC(C(=O)NCCc2ccc(Cl)cc2)CC1`: the AC50 under setting [1] was 0.398 µM [falling, partial curve] and the half-maximal activity concentration (AC50) under setting [2] was 0.126 µM [falling, full curve, poor fit].

Turning to `O=S1(=O)CCN(Cc2cccc(C(F)(F)F)c2)CC1`, under setting [2], the concentration at half-maximal activity (AC50) is 3.16 µM [falling, full curve].

With `CC(C)CC1NC(=S)N(C2CCCCC2)C1=O` (stereo unspecified), the AC50 under setting [1] was 4.47 µM [rising, partial curve].

In the case of `COc1cnc(-c2ccccn2)nc1Sc1ccc(Cl)cc1`, the AC50 by setting is: under setting [1], 35.5 µM [falling, single point]; under setting [2], 35.5 µM [falling, single point].

`COc1ccccc1NC(=O)N1CCCC1C(=O)Nc1ccc2c(c1)OCCO2` (stereo unspecified): the AC50 is, setting by setting: under setting [1], 25.1 µM [rising, partial curve, poor fit]; under setting [2], 12.6 µM [rising, partial curve, poor fit].

As to `COC(=O)C1=C(N)OC2=C(C(=O)CC(C)(C)C2)C1c1ccccc1OC` (stereo unspecified), the AC50 under setting [1] is 0.0251 µM [falling, full curve, poor fit] and the AC50 under setting [2] was 1.12 µM [falling, partial curve].

In the case of `OC(CNCCc1ccc(Cl)cc1)COCc1ccco1` (stereo unspecified), the concentration at half-maximal activity (AC50) under setting [2] was 20 µM [rising, single point].

Take `Cc1cc(NCCC(C)C)n2nc(C)c(-c3ccccc3)c2n1`: under setting [2], the AC50 is 22.4 µM [rising, single point].

For `COc1cccc(OCc2cc(/C=N/NC(=O)c3ccn[nH]3)ccc2OC)c1`, the AC50 reads like this: under setting [1], 28.2 µM [falling, single point]; under setting [2], 35.5 µM [falling, single point].

Regarding `CC(C)[C@H](N)C(=O)OCCOCn1cnc2c(=O)[nH]c(N)nc21`, the half-maximal activity concentration (AC50) under setting [1] is 6.31 µM [rising, single point].

Consider `N/C(=N\OC(=O)N1CCOCC1)c1ccccc1`, for which the AC50 under setting [2] was 35.5 µM [falling, partial curve].

For the molecule `COc1ccc(Br)cc1/C=N/n1c(C)nnc1C`, the AC50 under setting [2] is 14.1 µM [rising, partial curve].

`COc1cccc(OC)c1Nc1nc(C)nc2c1nnn2Cc1ccccc1Cl`: the AC50 under setting [2] is 17.8 µM [falling, partial curve].

In the case of `O=S(=O)(c1ccccc1)C(/C=N\O)/C=C/c1ccccc1` (stereo unspecified), the AC50 is, setting by setting: under setting [1], 28.2 µM [falling, partial curve]; under setting [2], 0.631 µM [falling, full curve, poor fit].

For `Cc1nnc(SCC(=O)c2ccc(Cl)cc2)s1`, the AC50 under setting [2] is 7.94 µM [rising, partial curve].

`CN(C)C(=N)N=C(N)N`: the AC50 was 0.00631 µM [falling, full curve, poor fit] under setting [1] and 0.00355 µM [falling, full curve, poor fit] under setting [2].

Consider `COc1ccc(C(=O)O/N=C(\N)Cc2ccc(Cl)cc2)cc1OC`, for which the AC50 is, setting by setting: under setting [1], 22.4 µM [falling, single point]; under setting [2], 25.1 µM [falling, partial curve].

Turning to `COc1cc(/C=C/C(=O)Nc2ccc(C(C)=O)cc2)cc(OC)c1OC`, under setting [1], the AC50 is 3.55 µM [falling, partial curve].

With `Cc1cccc(C(=O)Nc2nnc(-c3ccncc3)o2)c1`, the half-maximal activity concentration (AC50) under setting [1] was 0.0398 µM [falling, full curve, poor fit] and the AC50 under setting [2] was 0.112 µM [falling, full curve, poor fit].

In the case of `O=C(CO/N=C1\CCCc2nonc21)Nc1ccc(Br)cc1`, the AC50 under setting [2] was 7.08 µM [rising, partial curve].

Consider `O=C1CC(/C=C/c2ccccn2)=Nc2ccccc2N1`, for which the AC50 under setting [2] was 35.5 µM [rising, single point].

Consider `O=C(CSc1cccc[n+]1[O-])c1ccccc1Br`, for which the AC50 under setting [1] was 1.78 µM [falling, full curve, poor fit] and the AC50 under setting [2] was 0.891 µM [falling, full curve, poor fit].

As to `O=C(Cn1ccn(-c2ccc(F)cc2)c(=O)c1=O)NCCc1ccccc1`, the AC50 under setting [1] was 28.2 µM [falling, partial curve, poor fit].

As to `CC(=O)Nc1nc(-c2ccccc2)c(-c2ccccc2)o1`, the AC50 under setting [2] is 35.5 µM [rising, single point].

As for `CN(C)c1ccc(C(CNC(=O)c2ccc(F)cc2)c2c[nH]c3ccccc23)cc1` (stereo unspecified), the AC50 runs as follows: under setting [1], 7.08 µM [rising, partial curve, poor fit]; under setting [2], 20 µM [rising, single point].
